Test results: US20050074839A1
No constants are given. Whether binding was seen depends on the method and setting. Some entries that bind do so weakly or less than the wild type.

The chains behind the UniProt entries cited, without tags or fusion partners.
UniProt O15392: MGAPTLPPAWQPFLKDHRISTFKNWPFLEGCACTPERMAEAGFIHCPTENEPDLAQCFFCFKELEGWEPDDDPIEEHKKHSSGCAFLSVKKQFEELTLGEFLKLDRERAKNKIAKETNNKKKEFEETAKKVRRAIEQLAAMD

Experiments:
[1] = target: Gal4 DB domain fused to the full length survivin peptid (pDBLeu-Survivin) (human) (UniProt O15392); experiment: yeast two-hybrid screen with pDBLeu-Survivin as bait
[2] = target: Gal4 DB domain fused to the full length survivin peptid (pDBLeu-Survivin) (human) (UniProt O15392); experiment: yeast two-hybrid screen with pDBLeu-Survivin as bait; confirmed by beta-galactosidase filter assay and growth on selective medium

B1: Survivin interacting protein TPR1 (ligand)
chain: MAAVLQQVLERTELNKLPKSVQNKLEKFLADQQSEIDGLKGRHEKFKVESEQQYFEIEKRLSHSQERLVNETRECQSLRLELEKLNNQLKALTEKNKELEIAQDRNIAIQSQFTRTKEELEAEKRDLIRTNERLSQELEYLTEDVKRLNEKLKESNTTKGELQLKLDELQASDVSVKYREKRLEQEKELLHSQNTWLNTELKTKTDELLALGREKGNEILELKCNLENKKEEVSRLEEQMNGLKTSNEHLQKHVEDLLTKLKEAKEQQASMEEKFHNELNAHIKLSNLYKSAADDSEAKSNELTRAVEELHKLLKEAGEANKAIQDHLLEVEQSKDQMEKEMLEKIGRLEKELENANDLLSATKRKGAILSEEELAAMSPTAAAVAKIVKPGMKLTELYNAYVETQDQLLLEKLENKRINKYLDEIVKEVEAKAPILKRQREEYERAQKAVASLSVKLEQAMKEIQRLQEDTDKANKQSSVLERDNRRMEIQVKDLSQQIRVLLMELEEARGNHVIRDEEVSSADISSSSEVISQHLVSYRNIEELQQQNQRLLVALRELGETREREEQETTSSKITELQLKLESALTELEQLRKSRQHQMQLVDSIVRQRDMYRILLSQTTGVAIPLHASSLDDVSLASTPKRPSTSQTVSTPAPVPVIESTEAIEAKAALKQLQEIFENYKKEKAENEKIQNEQLEKLQEQVTDLRSQNTKISTQLDFASKRYL
binding [1]: binds | binding [2]: binds
